PubChem BioAssay AID1508588 | Peter MacCallum Cancer Centre – 2020
Assay: 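Knock-downs boosting vemurafenib effects on melanoma cell growth or lactate release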 (primary screen). System: human WM266.4 melanoma cells (BRAF V600 mutant). Knock-down reagent: siRNA pool against human genes, 40 nM. Timing: 96 h from transfection to read-out. Challenge: vemurafenib 300 nM (about IC25), added 48 h after transfection, for 48 h; comparison arm got DMSO vehicle only. Measurement: 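Ratios to non-targeting siRNA for cell gain, counted as DAPI nuclei after minus before drug and averaged over two replicates, and for absorbance-read medium lactate per cell; both binned into fold-change classes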. Reading the numbers: cell gain with vemurafenib: higher = more cell gain than with non-targeting siRNA; lactate per cell with vemurafenib: higher = more lactate made per cell. Call rule: 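Enhancement is called by pairing each knock-down's vehicle-arm and drug-arm fold-change classes for viability or glycolysis; which class combinations qualify is not given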. Meaning of the calls: active = enhances vemurafenib effect; inactive = no enhancement seen.
In all, the deposit lists about 18,000 reagents; shown is a part drawn at random. 790 of all reagents (4.4%) count as active. 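Calls rest on a combination of fold-change classes in drug and vehicle arms, not all shown here.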

For PTPRZ1, what does the deposit list?
cell gain with vemurafenib: 1.06; lactate per cell with vemurafenib: 1; call: inactive

With KIR3DL2, how do the results read?
cell gain with vemurafenib: 0.82; lactate per cell with vemurafenib: 0.48; call: active

With PLEKHA8P1, what does the deposit list?
cell gain with vemurafenib: 0.46; lactate per cell with vemurafenib: 0.87; call: inactive

What is on record for TXNDC15?
cell gain with vemurafenib: 0.29; lactate per cell with vemurafenib: 2.04; call: inactive

With RBM48, what was measured?
cell gain with vemurafenib: 0.76; lactate per cell with vemurafenib: 1.48; call: inactive

What is on record for DEFA6?
cell gain with vemurafenib: 0.61; lactate per cell with vemurafenib: 1.75; call: inactive

With KIF23, how do the results read?
cell gain with vemurafenib: 0.02; lactate per cell with vemurafenib: 4.35; call: inactive

For ZNF776, how do the results read?
cell gain with vemurafenib: 0.45; lactate per cell with vemurafenib: 1.04; call: inactive

For G2E3, how do the results read?
cell gain with vemurafenib: 0.64; lactate per cell with vemurafenib: 0.54; call: active

What is on record for TSEN54?
cell gain with vemurafenib: 0.47; lactate per cell with vemurafenib: 1.17; call: inactive

How did the screen score PELI1?
cell gain with vemurafenib: 0.25; lactate per cell with vemurafenib: 0.74; call: inactive

What is on record for MRPL15?
cell gain with vemurafenib: 0.33; lactate per cell with vemurafenib: 1.13; call: inactive

What is on record for ZFAND1?
cell gain with vemurafenib: 0.54; lactate per cell with vemurafenib: 0.92; call: inactive

What did the screen give for C2CD4A?
cell gain with vemurafenib: 0.23; lactate per cell with vemurafenib: 1.16; call: inactive

How did the screen score BPIFA1?
cell gain with vemurafenib: 0.27; lactate per cell with vemurafenib: 2.23; call: inactive

With DCST2, what does the deposit list?
cell gain with vemurafenib: 0.67; lactate per cell with vemurafenib: 0.76; call: inactive

Which result is listed for DLL1?
cell gain with vemurafenib: 0.21; lactate per cell with vemurafenib: 1.3; call: inactive

How did the screen score PI4K2B?
cell gain with vemurafenib: 0.64; lactate per cell with vemurafenib: 1.19; call: inactive

What did the screen give for DUOX2?
cell gain with vemurafenib: 0.35; lactate per cell with vemurafenib: 0.76; call: inactive

Which result is listed for RHPN1?
cell gain with vemurafenib: 0.7; lactate per cell with vemurafenib: 1.34; call: inactive

With OR56B1, how do the results read?
cell gain with vemurafenib: 0.74; lactate per cell with vemurafenib: 0.86; call: inactive

With PFKM, what was measured?
cell gain with vemurafenib: 0.5; lactate per cell with vemurafenib: 0.62; call: inactive

Which result is listed for CBLN1?
cell gain with vemurafenib: 0.49; lactate per cell with vemurafenib: 0.68; call: inactive

For CELSR1, how do the results read?
cell gain with vemurafenib: 0.93; lactate per cell with vemurafenib: 0.74; call: inactive

What is on record for TMX3?
cell gain with vemurafenib: 0.63; lactate per cell with vemurafenib: 0.82; call: inactive

Which result is listed for ULK1?
cell gain with vemurafenib: 0.66; lactate per cell with vemurafenib: 0.76; call: inactive

What is on record for SLCO1A2?
cell gain with vemurafenib: 0.67; lactate per cell with vemurafenib: 0.89; call: inactive
